# Data as given in paper PMC10626665.
# Sequences of proteins named here, by UniProt entry; tags and fusion partners are left off.
# UniProt P46940: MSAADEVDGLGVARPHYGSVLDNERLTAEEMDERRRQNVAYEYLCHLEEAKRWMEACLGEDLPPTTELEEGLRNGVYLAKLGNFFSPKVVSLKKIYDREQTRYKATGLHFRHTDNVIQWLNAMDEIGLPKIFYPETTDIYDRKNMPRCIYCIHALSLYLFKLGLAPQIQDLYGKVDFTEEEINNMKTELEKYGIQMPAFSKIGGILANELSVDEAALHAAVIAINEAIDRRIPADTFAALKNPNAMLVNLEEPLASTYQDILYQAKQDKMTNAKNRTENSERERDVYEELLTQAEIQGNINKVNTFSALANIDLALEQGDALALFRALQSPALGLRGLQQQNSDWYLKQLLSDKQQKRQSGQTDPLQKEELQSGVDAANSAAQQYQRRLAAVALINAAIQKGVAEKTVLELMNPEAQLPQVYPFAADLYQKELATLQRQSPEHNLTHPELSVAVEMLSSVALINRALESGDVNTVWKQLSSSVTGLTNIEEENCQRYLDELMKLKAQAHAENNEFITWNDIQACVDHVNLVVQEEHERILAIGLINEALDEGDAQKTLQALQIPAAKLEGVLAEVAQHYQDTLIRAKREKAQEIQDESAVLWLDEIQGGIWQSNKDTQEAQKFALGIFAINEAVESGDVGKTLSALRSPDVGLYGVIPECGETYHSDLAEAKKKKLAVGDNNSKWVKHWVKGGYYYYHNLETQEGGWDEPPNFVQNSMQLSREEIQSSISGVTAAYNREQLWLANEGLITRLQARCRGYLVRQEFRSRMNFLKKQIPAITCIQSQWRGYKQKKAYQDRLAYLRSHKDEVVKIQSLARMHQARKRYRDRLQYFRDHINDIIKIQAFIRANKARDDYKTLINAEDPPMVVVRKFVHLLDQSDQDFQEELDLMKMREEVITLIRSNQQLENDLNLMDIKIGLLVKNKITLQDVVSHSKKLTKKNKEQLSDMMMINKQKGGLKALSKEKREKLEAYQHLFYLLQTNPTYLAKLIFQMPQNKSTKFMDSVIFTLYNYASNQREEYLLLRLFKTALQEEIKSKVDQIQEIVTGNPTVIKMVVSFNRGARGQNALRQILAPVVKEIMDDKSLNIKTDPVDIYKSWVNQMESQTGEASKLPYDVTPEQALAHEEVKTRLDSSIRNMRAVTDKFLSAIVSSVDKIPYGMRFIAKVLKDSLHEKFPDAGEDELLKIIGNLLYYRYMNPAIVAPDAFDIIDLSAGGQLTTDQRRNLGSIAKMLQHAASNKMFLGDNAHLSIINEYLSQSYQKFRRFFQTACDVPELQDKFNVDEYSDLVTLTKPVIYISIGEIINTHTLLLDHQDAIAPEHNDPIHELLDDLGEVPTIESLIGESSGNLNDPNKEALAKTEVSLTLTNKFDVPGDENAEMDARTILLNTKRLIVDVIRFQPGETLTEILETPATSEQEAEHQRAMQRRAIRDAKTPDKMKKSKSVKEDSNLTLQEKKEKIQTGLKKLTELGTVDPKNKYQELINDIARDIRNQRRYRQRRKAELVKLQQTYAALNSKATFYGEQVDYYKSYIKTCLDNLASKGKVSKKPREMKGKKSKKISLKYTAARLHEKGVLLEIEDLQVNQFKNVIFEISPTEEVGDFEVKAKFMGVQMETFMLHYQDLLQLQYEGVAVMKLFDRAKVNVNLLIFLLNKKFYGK
# Results are given in words; binding and its absence hold for the method and conditions named. Binding seen in cells or lysates may run through a third protein. Here binding means that the protein was enriched with, or labelled near, the bait; the list need not be complete.
# Biological target: T1, MYL9 (human (endogenous in primary CAFs)) (UniProt P24844)
# T1 sequence: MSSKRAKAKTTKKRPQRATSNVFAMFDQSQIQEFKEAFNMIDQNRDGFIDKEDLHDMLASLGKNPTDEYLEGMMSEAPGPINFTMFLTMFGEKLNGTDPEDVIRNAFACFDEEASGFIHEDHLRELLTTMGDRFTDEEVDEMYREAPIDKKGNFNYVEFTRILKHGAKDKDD
# Assay: affinity purification with mass spectrometry; 'protein spectral analysis' of MYL9 partners; no method described
substance,measurement,value
IQGAP1 (from UniProt P46940 1-1657),binding,binds
